{"source": "PubChem BioAssay AID1347076", "about": "(National Center for Advancing Translational Sciences (NCATS), 2019)", "note": "Hit rate of the full screen: of about 400,000 compounds, about 13,000 (3.2%) were called active. This list was built around the results that the source calls inconclusive (neither active nor inactive); the mix of calls is not that of the screen. The call rests on the fitted dose curve; in most records, active means well fitted cell-killing curve with a large enough effect; inconclusive means small, poorly fitted or top-dose-only effect, or effect the other way; inactive means flat fitted curve, though single readings scatter. Potencies of inconclusive entries are doubtful fits and often do not repeat. On the % scale 0 is the no-effect control and ±100 the full control effect; potency means the concentration at half of the fitted maximal effect."}
{"experiment": "qHTS assay for MDR1-selective chemotherapeutics: Primary screen using the drug-selected MDR subline cells KB-V1; further: nearly all actives have a fitted effect of over 60% in size", "details": "KB-V1 MDR cells viability, CellTiter-Glo, 72 h; activity change, negative = cytotoxicity: at 46.1 µM (top of the series)", "summary_of_the_method": "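KB-V1 MDR subline cells in DMEM (phenol-red free, 10% FBS) exposed to compounds in qHTS concentration series for 72 h at 37 degrees C. Viability read by CellTiter-Glo luminescence; concentration-effect curves fitted after normalization and correction.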"}
{"molecule": "COc1ccccc1NS(=O)(=O)c1cccc(C(=O)N/N=C(/C)c2ccc(-n3ccnc3)cc2)c1", "Potency": "inconclusive: 16.4 µM [cytotoxic, partial curve]"}
{"molecule": "C=C1C(=O)OC2CC1C(O)CC(C)=CCCC(C)=CC(O)CC2C", "note": "(configuration not stated)", "Potency": "inconclusive: 20.6 µM [cytotoxic, single point]"}
{"molecule": "CCc1ccc(CN(C)C(=O)CCc2nnc(-c3ccc(-c4ccccc4)cc3)o2)nc1", "Potency": "inconclusive: 3.66 µM [cytotoxic, full curve]"}
{"molecule": "COc1ccc2nc(Nc3nc4ccc(NC(C)=O)cc4s3)sc2c1", "Potency": "inconclusive: 18.4 µM [cytotoxic, single point]"}
{"molecule": "O=C(c1ccc(Cl)cc1)N1N=C(c2ccccn2)CC1(O)C(F)(F)F", "note": "(configuration not stated)", "Potency": "inconclusive: 20.6 µM [cytotoxic, single point]"}
{"molecule": "CCC(C(=O)N1CCN(S(=O)(=O)c2ccc(F)cc2)CC1)c1ccccc1", "note": "(configuration not stated)", "Potency": "inactive"}
{"molecule": "CCCN(Cc1cccs1)C(=O)Nc1ccc(Br)cc1F", "Potency": "inconclusive: 18.4 µM [rising, single point]"}
{"molecule": "Cc1ccn2c(NCc3ccccc3)c(-c3cccs3)nc2c1", "Potency": "inconclusive: 16.4 µM [cytotoxic, partial curve]"}
{"molecule": "COc1ccc(-c2cc(C(=O)c3c(N)n(C)c(=O)n(C)c3=O)c3ccccc3n2)cc1", "Potency": "inconclusive: 16.4 µM [cytotoxic, partial curve]"}
{"molecule": "CCCN1CCN(CCNC(=O)Nc2ccccc2OCC)CC1", "Potency": "inactive"}
{"molecule": "CCOC(=O)C1CCCN(C(=O)CN2CCN(Cc3ccc(Cl)cc3)C2=O)C1", "note": "(configuration not stated)", "Potency": "inactive"}
{"molecule": "CCOC(=O)Cc1csc(NC(=O)c2ccc(Cl)nc2)n1", "Potency": "inconclusive: 20.6 µM [cytotoxic, single point]"}
{"molecule": "C/C(N)=C(/C#N)C(=O)COC(=O)c1ccccc1C(=O)c1ccc(C)cc1", "Potency": "inconclusive: 23.1 µM [cytotoxic, single point]"}
{"molecule": "COc1cc(OC)c(C(=O)OCC(=O)Nc2cc(C)on2)cc1OC", "Potency": "inconclusive: 3.66 µM [cytotoxic, full curve, poor fit]"}
{"molecule": "O=C(COC(=O)c1ccc(O)cc1)Nc1cc(S(=O)(=O)N2CCOCC2)ccc1N1CCOCC1", "Potency": "inconclusive: 6.51 µM [rising, single point]"}
{"molecule": "CC(C)OC(=O)N(C)C[C@@H]1OCc2cnnn2CCCC(=O)N([C@H](C)CO)C[C@H]1C", "activity change, negative = cytotoxicity": "inconclusive: 50.9%"}
{"molecule": "Cc1ccc(-n2[nH]c(C)c(C=NC34CN5CN(CN(C5)C3)C4)c2=O)cc1C", "Potency": "inconclusive: 29.1 µM [cytotoxic, partial curve, poor fit]"}
{"molecule": "CCOC(=O)CCn1c(CC(=O)OCC)nc2ccccc21", "Potency": "inconclusive: 9.2 µM [cytotoxic, partial curve, poor fit]"}
{"molecule": "O=[N+]([O-])c1ccc(/C=N/Nc2cc(Cl)nc(-c3ccccc3)n2)cc1", "Potency": "inconclusive: 18.4 µM [cytotoxic, single point]"}
{"molecule": "C#CCOCCOCCOCCNc1nc(N2CCN(C(=O)Cn3cc(CC(C)O)nn3)CC2)nc(N2CCN(C(=O)[C@H](CCCCN)n3cc(CCC(=O)O)nn3)CC2)n1", "note": "(some centres not stated)", "Potency": "inconclusive: 1.3 µM [rising, full curve]"}
{"molecule": "O=C(Cc1c(F)cccc1Cl)NNC(=O)c1ccncc1", "Potency": "inactive"}
{"molecule": "COc1nccnc1NS(=O)(=O)c1ccc(NC(=O)c2cccc(C)c2)cc1", "Potency": "inactive"}
{"molecule": "CCOc1ccc(NC(=O)c2cc3cc4cc(OC)ccc4nc3s2)cc1", "Potency": "inactive"}
{"molecule": "CCc1nn(CCCC(=O)NCc2cc(Br)ccc2OC)c(=O)c2cc3occc3n12", "Potency": "inconclusive: 2.59 µM [cytotoxic, full curve, poor fit]"}
{"molecule": "O=c1[nH]cnc2n[nH]nc12", "Potency": "inconclusive: 0.82 µM [cytotoxic, full curve, poor fit]"}
{"molecule": "COc1ccc2c(c1)CCC(C)N2C(=O)C(=O)c1c[nH]c2ccccc12", "note": "(configuration not stated)", "Potency": "inconclusive: 16.4 µM [cytotoxic, single point]"}
{"molecule": "O=C(CCl)NC(Cc1ccccc1)c1ccccc1", "note": "(configuration not stated)", "Potency": "inconclusive: 29.1 µM [cytotoxic, single point]"}
{"molecule": "COc1ccc(Cc2nn3c(-c4ccccc4OC)nnc3s2)cc1", "Potency": "inconclusive: 11.6 µM [cytotoxic, partial curve, poor fit]"}
{"molecule": "COC(=O)N/N=C/c1ccc([N+](=O)[O-])o1", "Potency": "inconclusive: 5.8 µM [cytotoxic, partial curve, poor fit]"}
{"molecule": "O=c1[nH]c(=O)n(C2CC(O)C(CO)O2)cc1Br", "note": "(configuration not stated)", "Potency": "inactive"}
{"molecule": "COc1ccc(CN2CCc3ccc(NC(=O)CCc4ccccc4OC)cc3C2)c(O)c1", "Potency": "inactive"}
{"molecule": "Clc1cccc(Cl)c1/C=C/c1nc2ccccc2[nH]1", "Potency": "inconclusive: 18.4 µM [cytotoxic, single point]"}
{"molecule": "CC1(C)CC(NC(=O)C2CCN(S(=O)(=O)c3ccc(Cl)c(C(F)(F)F)c3)CC2)CC(C)(C)N1", "Potency": "inactive"}
{"molecule": "O=c1c2cccnc2n(Cc2cccc(F)c2)c(=O)n1Cc1ccccc1Cl", "Potency": "inconclusive: 29.1 µM [cytotoxic, single point]"}
{"molecule": "CCOc1ccc(OCc2ccc(C(=O)N/N=C(\\C)c3ccccn3)cc2)cc1", "Potency": "inconclusive: 2.91 µM [cytotoxic, full curve]"}
{"molecule": "S=c1nccc(-c2ccc(Cl)cc2)[nH]1", "Potency": "inactive"}
{"molecule": "CC(=O)c1ccc(OC(=O)COc2ccccc2)cc1", "Potency": "inconclusive: 29.1 µM [rising, single point]"}
{"molecule": "CC(=O)c1c(N2CCN(Cc3ccccc3)CC2)[nH]c(-c2ccccc2)nc1=S", "Potency": "inconclusive: 17.8 µM [cytotoxic, single point]"}
{"molecule": "CCOC(=O)CSc1nc2c(sc3cccc(F)c32)c(=O)n1Cc1ccc(OC)cc1", "Potency": "inactive"}
{"molecule": "Cc1ccc(NC(=O)/C=N/OCC(=O)NCc2ccccc2Cl)cc1", "Potency": "inactive"}
{"molecule": "CCOc1ccc(S(=O)(=O)N2CCC(C(=O)NC3CCCC3)CC2)cc1", "Potency": "inactive"}
{"molecule": "COc1cc(OC)cc(C(=O)NC(C(=O)Nc2ccc3c(c2)OCO3)C(C)C)c1", "note": "(configuration not stated)", "Potency": "inactive"}
{"molecule": "Cc1ccc(C(=O)NNC(=O)Cn2nnc3ccccc32)cc1", "Potency": "inactive"}
{"molecule": "COC(=O)c1cc2c([nH]c1=O)CC(c1ccccc1)CC2=O", "note": "(configuration not stated)", "Potency": "inconclusive: 1.84 µM [rising, full curve, poor fit]"}
{"molecule": "CCC(C)N(C(=O)COC(=O)c1cc([N+](=O)[O-])ccc1N)C1CCS(=O)(=O)C1", "note": "(configuration not stated)", "Potency": "inactive"}
{"molecule": "Cc1cnc(NC(=O)CSc2ncn(-c3ccccc3)n2)s1", "Potency": "inconclusive: 18.4 µM [cytotoxic, single point]"}
{"molecule": "CCC(Cc1ccccc1)NC(=O)CCn1cccc1", "note": "(configuration not stated)", "Potency": "inconclusive: 18.4 µM [cytotoxic, partial curve, poor fit]"}
{"molecule": "Cc1cccc(C(=O)NC(=S)Nc2ccc(S(=O)(=O)N3CCN(C)CC3)cc2)c1", "Potency": "inactive"}
{"molecule": "O=C(NCc1cccnc1)c1cc(C2CCCCN2C(=O)CCCc2ccccc2)on1", "note": "(configuration not stated)", "Potency": "inactive"}
{"molecule": "COc1cc(/C=N/NS(=O)(=O)c2ccc(C)cc2)ccc1OCc1ccc(C(=O)O)cc1", "Potency": "inactive"}
{"molecule": "COC(=O)c1ccccc1NC(=O)N1CCC(n2c(C)nc3cccnc32)CC1", "Potency": "inactive"}
{"molecule": "COc1ccc(CC(=O)Nc2nc3ccccc3s2)cc1S(=O)(=O)N1CCOCC1", "Potency": "inactive"}
{"molecule": "N#CC1=C(N)CCC1", "Potency": "inactive"}
{"molecule": "O=[N+]([O-])c1ccc(NN=Cc2ccccc2)nc1", "Potency": "inactive"}
{"molecule": "O=C(c1cc(S(=O)(=O)Nc2ccccc2F)c(Cl)cc1Cl)N1CCN(CCO)CC1", "Potency": "inactive"}
{"molecule": "CCn1c(C(=O)N2CCC(C(=O)N3CCN(c4ccccn4)CC3)CC2)cc2sccc21", "Potency": "inactive"}
{"molecule": "CCOc1ccccc1NC(=O)C(NCCc1ccc(OC)cc1)c1ccccc1", "note": "(configuration not stated)", "Potency": "inconclusive: 32.6 µM [cytotoxic, single point]"}
{"molecule": "Cc1ccccc1CN(C)Cc1cc(=O)oc2c(C)c(C)ccc12", "Potency": "inconclusive: 13 µM [cytotoxic, partial curve, poor fit]"}
{"molecule": "CC(CNC(=S)Nc1cc(F)cc(F)c1)CSc1ccc(Cl)cc1", "note": "(configuration not stated)", "Potency": "inconclusive: 16.4 µM [cytotoxic, single point]"}
{"molecule": "Cc1ccc(-n2c(=O)c3sccc3n(CC(=O)NCc3ccco3)c2=O)cc1", "Potency": "inactive"}
{"molecule": "COc1ccccc1C(c1c(O)nc(SC)[nH]c1=O)c1c(O)nc(SC)[nH]c1=O", "Potency": "inconclusive: 25.9 µM [rising, single point]"}
{"molecule": "O=C(COC(=O)c1ccccc1F)Nc1ccc2c(c1)OCCO2", "Potency": "inconclusive: 29.1 µM [rising, partial curve, poor fit]"}
{"molecule": "CCCOc1ccc(C(=O)CCN2CCCCC2)cc1", "Potency": "inconclusive: 32.6 µM [cytotoxic, single point]"}
{"molecule": "CC(C)CC1C(C#N)=C(N)OC2=C1C(=O)CC(c1ccccc1)C2", "note": "(configuration not stated)", "Potency": "inactive"}
{"molecule": "CCCC(=O)N/C(N)=N/c1nc(C)c2ccccc2n1", "Potency": "inconclusive: 29.1 µM [cytotoxic, single point]"}
{"molecule": "O=C(c1ccccc1Cc1ccccc1)N1CCN(S(=O)(=O)c2ccccc2[N+](=O)[O-])CC1", "Potency": "inconclusive: 8.2 µM [cytotoxic, partial curve, poor fit]"}
{"molecule": "COc1ccccc1Nc1nc(N)nc(CN2CCN(Cc3ccccc3)CC2)n1", "Potency": "inconclusive: 10.3 µM [cytotoxic, partial curve]"}
{"molecule": "CC(=O)N1CCN(c2csc3ccc(Br)cc3c2=O)CC1", "Potency": "inconclusive: 16.4 µM [rising, partial curve, poor fit]"}
{"molecule": "Cc1nnc(N/N=C/c2ccc(Br)cc2)n1N", "Potency": "inactive"}
{"molecule": "CC(=C/c1ccc(C(C)C)cc1)/C=N/NC(=O)Cn1nc(C)cc1C", "Potency": "inactive"}
{"molecule": "FC(F)(F)C1=CC(c2ccc(Br)cc2)=NCCN1", "Potency": "inconclusive: 20.6 µM [cytotoxic, single point]"}
{"molecule": "COc1ccccc1C(=O)NC(CCSC)C(=O)NCC(c1ccco1)N(C)C", "note": "(configuration not stated)", "Potency": "active: 18.4 µM"}
